Data published in the supplement of paper PMC10849652.
The other results are listed elsewhere or left out.

Protein sequences, listed by entry. Tags and fused reporters are not part of them. Lines headed by an entry give the natural chain unless they say otherwise; changes in a name come on top.
UniProt Q8WUW1: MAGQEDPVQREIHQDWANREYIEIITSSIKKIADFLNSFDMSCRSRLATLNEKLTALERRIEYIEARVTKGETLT
UniProt O15392, whole entry, looked up: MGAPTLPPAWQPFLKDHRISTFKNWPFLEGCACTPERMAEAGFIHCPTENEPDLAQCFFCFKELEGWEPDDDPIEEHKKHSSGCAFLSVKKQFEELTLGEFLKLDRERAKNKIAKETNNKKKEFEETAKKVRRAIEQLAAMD
UniProt O95999: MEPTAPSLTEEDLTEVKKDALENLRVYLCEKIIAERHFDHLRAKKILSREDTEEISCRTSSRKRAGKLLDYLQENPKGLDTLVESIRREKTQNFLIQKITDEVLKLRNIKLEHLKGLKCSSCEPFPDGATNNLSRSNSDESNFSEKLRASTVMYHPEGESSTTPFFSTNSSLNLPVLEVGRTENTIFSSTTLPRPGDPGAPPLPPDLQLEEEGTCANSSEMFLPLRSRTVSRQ
UniProt Q15059, whole entry, looked up: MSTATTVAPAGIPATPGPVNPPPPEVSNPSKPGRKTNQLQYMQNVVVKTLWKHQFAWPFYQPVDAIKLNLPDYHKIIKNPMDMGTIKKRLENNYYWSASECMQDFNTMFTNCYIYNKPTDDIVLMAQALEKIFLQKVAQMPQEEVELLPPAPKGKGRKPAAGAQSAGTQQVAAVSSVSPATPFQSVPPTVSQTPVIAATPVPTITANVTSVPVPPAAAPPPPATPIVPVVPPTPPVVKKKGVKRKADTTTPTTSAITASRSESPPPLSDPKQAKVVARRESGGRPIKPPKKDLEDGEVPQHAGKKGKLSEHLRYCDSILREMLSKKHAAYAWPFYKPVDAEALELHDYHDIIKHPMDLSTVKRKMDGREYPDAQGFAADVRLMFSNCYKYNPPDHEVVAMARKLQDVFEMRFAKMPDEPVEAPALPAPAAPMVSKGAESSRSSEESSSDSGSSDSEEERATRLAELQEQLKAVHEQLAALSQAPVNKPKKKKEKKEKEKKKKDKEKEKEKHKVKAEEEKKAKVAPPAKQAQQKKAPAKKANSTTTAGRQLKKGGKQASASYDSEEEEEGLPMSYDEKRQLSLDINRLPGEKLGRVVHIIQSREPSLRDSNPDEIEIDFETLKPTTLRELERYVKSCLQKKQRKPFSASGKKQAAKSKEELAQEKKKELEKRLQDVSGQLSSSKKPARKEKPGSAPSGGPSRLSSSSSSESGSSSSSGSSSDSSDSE
UniProt Q8WY22: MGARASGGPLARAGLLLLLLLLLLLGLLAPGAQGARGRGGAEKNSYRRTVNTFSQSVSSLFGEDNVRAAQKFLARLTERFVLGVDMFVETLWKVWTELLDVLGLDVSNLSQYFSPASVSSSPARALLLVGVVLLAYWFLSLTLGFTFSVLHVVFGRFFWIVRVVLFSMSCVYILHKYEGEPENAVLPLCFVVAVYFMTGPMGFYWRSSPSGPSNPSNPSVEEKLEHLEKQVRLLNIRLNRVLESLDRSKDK
UniProt P07738: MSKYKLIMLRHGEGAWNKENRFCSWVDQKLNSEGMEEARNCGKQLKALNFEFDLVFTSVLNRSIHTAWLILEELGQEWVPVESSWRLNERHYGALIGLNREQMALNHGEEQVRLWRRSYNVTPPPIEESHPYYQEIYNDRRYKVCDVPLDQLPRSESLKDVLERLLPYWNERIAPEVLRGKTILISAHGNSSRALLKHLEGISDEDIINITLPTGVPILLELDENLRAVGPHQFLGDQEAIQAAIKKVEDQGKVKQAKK
UniProt Q9BXK5, whole entry, looked up: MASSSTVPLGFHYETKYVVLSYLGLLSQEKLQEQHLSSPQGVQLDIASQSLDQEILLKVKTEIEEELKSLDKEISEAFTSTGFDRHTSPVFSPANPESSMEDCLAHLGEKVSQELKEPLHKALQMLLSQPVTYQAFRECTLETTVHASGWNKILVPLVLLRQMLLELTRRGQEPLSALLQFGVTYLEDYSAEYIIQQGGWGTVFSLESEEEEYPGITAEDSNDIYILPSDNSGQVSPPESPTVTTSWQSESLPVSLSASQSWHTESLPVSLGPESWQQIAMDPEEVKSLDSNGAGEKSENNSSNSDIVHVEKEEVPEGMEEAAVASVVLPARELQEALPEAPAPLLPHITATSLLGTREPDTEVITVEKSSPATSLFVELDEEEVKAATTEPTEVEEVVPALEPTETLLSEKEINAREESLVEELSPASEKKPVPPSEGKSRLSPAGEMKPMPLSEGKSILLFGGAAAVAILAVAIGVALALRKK
UniProt P25440, whole entry, looked up: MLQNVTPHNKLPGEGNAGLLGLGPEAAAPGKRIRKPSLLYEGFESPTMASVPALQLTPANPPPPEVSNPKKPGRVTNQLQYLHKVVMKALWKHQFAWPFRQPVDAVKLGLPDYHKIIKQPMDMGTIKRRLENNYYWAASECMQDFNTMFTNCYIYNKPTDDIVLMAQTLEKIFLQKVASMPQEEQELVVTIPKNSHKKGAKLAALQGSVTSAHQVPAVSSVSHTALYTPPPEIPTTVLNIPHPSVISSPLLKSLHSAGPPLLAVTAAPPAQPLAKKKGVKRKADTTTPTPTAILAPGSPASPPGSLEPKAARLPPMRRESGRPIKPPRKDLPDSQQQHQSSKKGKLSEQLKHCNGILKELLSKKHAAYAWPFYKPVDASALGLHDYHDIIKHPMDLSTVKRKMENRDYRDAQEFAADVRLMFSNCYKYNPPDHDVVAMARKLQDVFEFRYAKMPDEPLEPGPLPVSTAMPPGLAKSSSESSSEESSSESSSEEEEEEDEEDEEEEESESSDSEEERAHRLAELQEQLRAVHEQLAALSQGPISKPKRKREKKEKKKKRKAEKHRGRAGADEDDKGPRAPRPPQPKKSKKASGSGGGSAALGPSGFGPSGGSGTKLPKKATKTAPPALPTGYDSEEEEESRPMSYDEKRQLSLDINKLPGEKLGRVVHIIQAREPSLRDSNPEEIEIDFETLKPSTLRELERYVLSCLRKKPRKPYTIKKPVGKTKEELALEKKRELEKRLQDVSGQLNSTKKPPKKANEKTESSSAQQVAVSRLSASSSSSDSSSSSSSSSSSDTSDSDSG
UniProt Q8TDH9: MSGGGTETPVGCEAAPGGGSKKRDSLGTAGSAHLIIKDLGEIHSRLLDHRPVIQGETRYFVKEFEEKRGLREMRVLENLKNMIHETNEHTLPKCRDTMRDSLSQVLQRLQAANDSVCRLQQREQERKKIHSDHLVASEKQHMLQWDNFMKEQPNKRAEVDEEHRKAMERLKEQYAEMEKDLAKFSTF
UniProt P15291: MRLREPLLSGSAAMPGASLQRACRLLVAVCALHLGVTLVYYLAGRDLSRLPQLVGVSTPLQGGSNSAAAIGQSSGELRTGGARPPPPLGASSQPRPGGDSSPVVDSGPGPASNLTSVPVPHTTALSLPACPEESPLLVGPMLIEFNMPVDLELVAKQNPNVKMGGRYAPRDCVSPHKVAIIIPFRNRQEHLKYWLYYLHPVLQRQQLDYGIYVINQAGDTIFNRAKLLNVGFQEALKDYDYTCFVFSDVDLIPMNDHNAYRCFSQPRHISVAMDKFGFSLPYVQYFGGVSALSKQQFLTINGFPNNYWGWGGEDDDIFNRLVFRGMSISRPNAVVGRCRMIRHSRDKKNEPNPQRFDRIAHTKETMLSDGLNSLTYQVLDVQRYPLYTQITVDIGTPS
UniProt Q96GS4: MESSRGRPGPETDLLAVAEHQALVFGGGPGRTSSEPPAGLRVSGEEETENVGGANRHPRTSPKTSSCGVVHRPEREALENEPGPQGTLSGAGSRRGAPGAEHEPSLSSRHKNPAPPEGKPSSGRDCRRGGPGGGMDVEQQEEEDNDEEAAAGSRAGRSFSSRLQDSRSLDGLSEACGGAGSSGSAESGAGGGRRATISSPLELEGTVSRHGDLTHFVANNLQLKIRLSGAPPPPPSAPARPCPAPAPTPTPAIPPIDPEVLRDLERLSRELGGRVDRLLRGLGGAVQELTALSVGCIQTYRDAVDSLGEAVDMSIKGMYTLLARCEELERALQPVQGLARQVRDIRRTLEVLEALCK
UniProt Q06187: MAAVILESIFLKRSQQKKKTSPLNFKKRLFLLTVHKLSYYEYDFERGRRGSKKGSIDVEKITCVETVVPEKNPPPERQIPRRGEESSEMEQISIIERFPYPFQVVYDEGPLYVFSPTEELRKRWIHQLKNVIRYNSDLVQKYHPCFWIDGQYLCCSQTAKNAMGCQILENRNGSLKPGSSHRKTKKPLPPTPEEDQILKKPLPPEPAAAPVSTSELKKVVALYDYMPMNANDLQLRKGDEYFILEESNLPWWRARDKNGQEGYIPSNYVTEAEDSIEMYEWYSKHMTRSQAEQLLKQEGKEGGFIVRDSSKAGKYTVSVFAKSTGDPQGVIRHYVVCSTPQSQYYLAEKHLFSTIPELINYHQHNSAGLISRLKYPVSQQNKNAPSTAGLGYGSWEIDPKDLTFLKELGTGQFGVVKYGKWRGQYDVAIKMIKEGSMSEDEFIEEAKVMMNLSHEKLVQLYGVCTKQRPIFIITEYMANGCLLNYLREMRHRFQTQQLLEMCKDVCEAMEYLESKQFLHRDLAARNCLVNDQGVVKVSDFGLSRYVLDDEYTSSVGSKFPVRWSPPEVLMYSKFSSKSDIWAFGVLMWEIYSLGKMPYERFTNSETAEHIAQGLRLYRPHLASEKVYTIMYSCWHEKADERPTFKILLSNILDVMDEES
UniProt O15155: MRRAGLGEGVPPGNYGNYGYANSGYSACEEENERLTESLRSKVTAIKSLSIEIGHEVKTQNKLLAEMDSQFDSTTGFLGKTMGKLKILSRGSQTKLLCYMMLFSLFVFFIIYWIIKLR
UniProt P43251: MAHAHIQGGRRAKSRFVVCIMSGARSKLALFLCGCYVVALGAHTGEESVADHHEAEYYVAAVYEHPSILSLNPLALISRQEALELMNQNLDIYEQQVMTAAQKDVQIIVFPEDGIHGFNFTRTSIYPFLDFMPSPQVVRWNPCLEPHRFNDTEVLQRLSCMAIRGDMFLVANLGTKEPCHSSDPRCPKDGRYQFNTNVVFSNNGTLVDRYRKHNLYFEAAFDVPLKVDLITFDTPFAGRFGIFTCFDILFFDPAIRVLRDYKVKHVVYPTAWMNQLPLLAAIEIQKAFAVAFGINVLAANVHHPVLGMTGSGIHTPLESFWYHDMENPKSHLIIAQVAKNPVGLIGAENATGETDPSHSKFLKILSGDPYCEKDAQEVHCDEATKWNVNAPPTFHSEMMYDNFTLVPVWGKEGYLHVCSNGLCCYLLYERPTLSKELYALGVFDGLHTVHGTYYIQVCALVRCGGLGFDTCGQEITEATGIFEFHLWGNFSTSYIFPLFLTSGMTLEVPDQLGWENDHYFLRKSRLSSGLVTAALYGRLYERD

Assays:
Test in all cases: log2 fold change, soluble protein after heating vs DMSO (PISA); higher = thermal stabilisation; K562 lysate, 10 uM; active = over 0.2 and 3.5 SD of the protein, either way, in both replicates (recomputed)
[1] = compound: CCCS(=O)(=O)Nc1ccc(F)c(C(=O)c2c[nH]c3ncc(-c4ccc(Cl)cc4)cc23)c1F [vemurafenib]
Procedure, shortened: (§1)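 Quantification was by TMTpro 16plex LC-MS/MS with equalised channel sums, applied to the supernatant after 21,000xg for 90 min. Samples were crude K562 extract at 1 mg/mL protein in PBS pH 7.4 with 1 mM MgCl2, treated with 10 μM compound for 30 min, heated for 3 min across 48°C-58°C, pooled and brought to 0.5% NP-40 at 4°C. Values are log-two fold changes in thermal stability relative to solvent controls, from duplicates.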

[2] = compound: CCCS(=O)(=O)Nc1ccc(F)c(C(=O)c2c[nH]c3ncc(Cl)cc23)c1F
Procedure, shortened: as §1

[3] = compound: CCN(CCCOc1ccc2c(Nc3cc(CC(=O)Nc4cccc(F)c4)[nH]n3)ncnc2c1)CCOP(=O)(O)O [barasertib]
Procedure, shortened: as §1

[4] = compound: CC[C@@H]1C(=O)N(C)c2cnc(Nc3ccc(C(=O)NC4CCN(C)CC4)cc3OC)nc2N1C1CCCC1
Procedure, shortened: as §1

[5] = compound: CC[C@@H]1C(=O)N(C)c2cnc(Nc3ccc(C(=O)N[C@H]4CC[C@H](N5CCN(CC6CC6)CC5)CC4)cc3OC)nc2N1C(C)C [volasertib]
Procedure, shortened: as §1

[6] = compound: CCn1c(C(=O)N(C2CC2)C2CC2)cc2c3c(ncn3C)c(Nc3cc(C)n(C)n3)nc21
Procedure, shortened: as §1

[7] = compound: CCn1cc(-c2ccnc3[nH]c(-c4cccc(CN(C)C)c4)cc23)c(-c2ccc(NC(=O)N(C)C)cc2)n1
Procedure, shortened: as §1

[8] = compound: CN1CCC(CNc2ccc3ncc(-c4cccc(OC(F)(F)F)c4)n3n2)CC1
Procedure, shortened: as §1

[9] = compound: CN1CCN(CCOc2cc(OC3CCOCC3)c3c(Nc4c(Cl)ccc5c4OCO5)ncnc3c2)CC1 [saracatinib]
Procedure, shortened: as §1

[10] = compound: CN1CCN(c2nc(C3=C(c4c[nH]c5ccccc45)C(=O)NC3=O)c3ccccc3n2)CC1 [sotrastaurin]
Procedure, shortened: as §1

[11] = compound: CN1CC[C@H](c2c(O)cc(O)c3c(=O)cc(-c4ccccc4Cl)oc23)[C@H](O)C1 [alvocidib]
Procedure, shortened: as §1

[12] = compound: CN1CCc2c(c3ccccc3n2Cc2ccc(C(=O)NO)cc2)C1 [Tubastatin A]
Procedure, shortened: as §1

[13] = compound: CNC(=O)C1=CC=CC=C1NC2=NC(=NC=C2Cl)NC3=C(C=C(C=C3)N4CCOCC4)OC
Procedure, shortened: as §1

[14] = compound: CNC(=O)c1ccc(Nc2ncc(C(F)(F)F)c(NCc3nccnc3N(C)S(C)(=O)=O)n2)cc1 [defactinib]
Procedure, shortened: as §1

[15] = compound: CNc1nc(-c2ccc3c(N)n[nH]c3c2)cc(N2C[C@@H](C(=O)NC3CCCCC3)CC[C@H]2C)n1
Procedure, shortened: as §1

[16] = compound: COC(=O)N[C@@H](C)CNc1nccc(-c2cn(C(C)C)nc2-c2cc(Cl)cc(NS(C)(=O)=O)c2F)n1 [encorafenib]
Procedure, shortened: as §1

[17] = compound: COC(=O)[C@H](CCSC)NC(=O)C1=C(C=C(C=C1)NC[C@H](CS)N)C2=CC=CC=C2
Procedure, shortened: as §1

[18] = compound: COc1cc(Nc2ncc3c(n2)-c2ccc(Cl)cc2C(c2c(F)cccc2OC)=NC3)ccc1C(=O)O [alisertib]
Procedure, shortened: as §1

[19] = compound: COc1cc2nc(-c3cc(F)ccc3O)nc(N[C@@H]3CNC[C@H]3C(C)(C)O)c2cc1OC
Procedure, shortened: as §1

[20] = compound: COc1cc2ncnc(Nc3ccc(F)c(Cl)c3)c2cc1OCCCN1CCOCC1 [gefitinib]
Procedure, shortened: as §1

Row | Target | log2 fold change [1] | log2 fold change [2] | log2 fold change [3] | log2 fold change [4] | log2 fold change [5] | log2 fold change [6] | log2 fold change [7] | log2 fold change [8] | log2 fold change [9] | log2 fold change [10] | log2 fold change [11] | log2 fold change [12] | log2 fold change [13] | log2 fold change [14] | log2 fold change [15] | log2 fold change [16] | log2 fold change [17] | log2 fold change [18] | log2 fold change [19] | log2 fold change [20]
1 | BRK1 isoform 2 (UniProt Q8WUW1) | inactive: -0.006 | inactive: -0.023 | inactive: -0.039 | inactive: 0.037 | inactive: 0.06 | inactive: 0.078 | inactive: 0.042 | inactive: -0.068 | inactive: 0.011 | inactive: -0.006 | inactive: 0.097 | inactive: 0.005 | inactive: 0.044 | inactive: 0.141 | inactive: -0.007 | inactive: -0.009 | inactive: -0.016 | inactive: 0.003 | inactive: -0.052 | inactive: -0.031
2 | BIRC5 (UniProt O15392) | inactive: -0.035 | inactive: -0.053 | inactive: 0.012 | inactive: -0.107 | inactive: 0.003 | inactive: -0.051 | inactive: -0.001 | inactive: 0.066 | inactive: 0.039 | inactive: -0.001 | inactive: 0.004 | inactive: 0.035 | inactive: 0.108 | inactive: -0.015 | inactive: -0.022 | inactive: 0.117 | inactive: 0.005 | inactive: 0.104 | inactive: -0.105 | inactive: -0.052
3 | BCL10 (UniProt O95999) | inactive: -0.009 | inactive: -0.007 | inactive: 0.015 | inactive: 0.031 | inactive: 0.029 | inactive: 0.026 | inactive: 0.035 | inactive: 0.02 | inactive: 0.03 | inactive: 0.013 | inactive: -0.061 | inactive: 0.036 | inactive: 0.024 | inactive: -0.041 | inactive: -0.009 | inactive: 0.037 | inactive: -0.057 | inactive: 0.002 | inactive: -0.049 | inactive: -0.011
4 | BRD3 (UniProt Q15059) | inactive: -0.046 | inactive: 0.038 | inactive: -0.087 | active: 0.451 | inactive: 0.263 | – | inactive: -0.143 | inactive: 0.188 | inactive: 0.008 | inactive: -0.082 | inactive: -0.059 | – | inactive: 0.105 | inactive: 0.017 | inactive: 0.09 | inactive: -0.016 | inactive: 0.018 | inactive: -0.003 | inactive: -0.015 | inactive: -0.15
5 | BRI3BP (UniProt Q8WY22) | inactive: 0.057 | inactive: -0.068 | inactive: -0.025 | inactive: -0.223 | inactive: -0.025 | inactive: 0.069 | inactive: 0.114 | inactive: 0.096 | inactive: 0.136 | – | inactive: -0.128 | inactive: 0.091 | inactive: -0.253 | inactive: -0.069 | inactive: -0.002 | inactive: 0.09 | inactive: 0.09 | inactive: -0.179 | inactive: -0.066 | inactive: -0.055
6 | BCKDK (UniProt O14874) | inactive: -0.036 | inactive: 0.002 | inactive: -0.028 | inactive: 0.203 | inactive: -0.037 | inactive: 0.067 | inactive: -0.033 | inactive: 0.059 | inactive: 0.031 | inactive: 0.028 | inactive: 0.029 | inactive: -0.117 | inactive: -0.005 | inactive: 0.029 | inactive: -0.098 | inactive: -0.061 | inactive: 0.066 | inactive: 0.023 | inactive: -0.027 | inactive: 0.053
7 | BPGM (UniProt P07738) | inactive: -0.001 | inactive: -0.032 | inactive: -0.039 | inactive: -0.158 | inactive: -0.04 | inactive: 0.08 | inactive: -0.019 | inactive: -0.023 | inactive: 0.002 | inactive: 0.079 | inactive: 0.034 | inactive: 0.09 | inactive: -0.023 | inactive: -0.023 | inactive: 0.014 | inactive: -0.162 | inactive: 0.097 | inactive: -0.058 | inactive: -0.022 | inactive: 0.012
8 | BCL2L13 (UniProt Q9BXK5) | inactive: 0.003 | inactive: -0.033 | inactive: -0.028 | inactive: 0.024 | inactive: 0.008 | inactive: -0.026 | inactive: 0.041 | inactive: 0.002 | inactive: -0.053 | inactive: 0.025 | inactive: -0.044 | inactive: 0.029 | inactive: 0.006 | inactive: 0.02 | inactive: -0.007 | inactive: -0.023 | inactive: 0.032 | inactive: -0.023 | inactive: -0.007 | inactive: 0.019
9 | BRD2 isoform 2 (UniProt P25440) | inactive: 0.033 | inactive: -0.153 | inactive: -0.053 | active: 0.548 | inactive: 0.369 | inactive: 0.042 | active: 0.617 | inactive: -0.066 | inactive: -0.047 | inactive: -0.1 | inactive: 0.06 | inactive: 0.002 | inactive: 0.059 | inactive: -0.187 | inactive: 0.068 | inactive: 0.084 | inactive: -0.118 | inactive: 0 | inactive: 0.019 | inactive: -0.009
10 | BLOC1S5 (UniProt Q8TDH9) | inactive: -0.037 | inactive: 0.023 | inactive: 0.035 | inactive: 0.035 | inactive: 0.03 | inactive: -0.021 | inactive: 0.018 | inactive: 0.046 | inactive: 0.008 | inactive: -0.02 | inactive: -0.03 | inactive: 0.037 | inactive: 0.047 | inactive: 0.015 | inactive: 0.048 | inactive: -0.011 | inactive: -0.031 | inactive: 0.038 | inactive: -0.01 | inactive: -0.061
11 | B4GALT1 (UniProt P15291) | inactive: -0.025 | inactive: 0 | inactive: 0.002 | inactive: -0.031 | inactive: -0.036 | inactive: -0.082 | inactive: 0.021 | inactive: -0.022 | – | inactive: -0.053 | inactive: 0.018 | inactive: 0.053 | inactive: -0.038 | inactive: 0.009 | – | inactive: -0.132 | inactive: 0.067 | inactive: -0.059 | inactive: 0.014 | inactive: -0.039
12 | BORCS6 (UniProt Q96GS4) | inactive: -0.016 | inactive: 0.001 | inactive: 0.106 | inactive: 0.116 | inactive: 0.049 | inactive: -0.054 | inactive: 0.019 | inactive: 0.107 | inactive: 0.042 | inactive: 0.024 | inactive: 0.024 | inactive: -0.01 | inactive: -0.01 | inactive: 0.003 | inactive: -0.04 | inactive: 0.046 | inactive: -0.015 | inactive: -0.008 | inactive: -0.006 | inactive: 0.061
13 | BTK isoform 2 (UniProt Q06187) | inactive: -0.014 | inactive: 0.013 | inactive: 0.128 | – | inactive: -0.106 | inactive: 0.01 | inactive: -0.147 | inactive: 0.053 | inactive: 0.058 | inactive: -0.026 | inactive: -0.037 | inactive: -0.113 | active: 0.307 | inactive: 0.017 | inactive: -0.039 | inactive: -0.033 | inactive: 0.051 | inactive: -0.012 | inactive: -0.029 | inactive: -0.046
14 | BET1 (UniProt O15155) | inactive: 0.107 | inactive: -0.012 | inactive: 0.028 | inactive: -0.019 | inactive: 0.032 | inactive: -0.021 | inactive: 0.044 | inactive: -0.009 | inactive: 0.031 | inactive: -0.033 | inactive: 0.07 | inactive: -0.038 | inactive: 0.033 | inactive: 0.058 | inactive: 0.027 | inactive: -0.062 | active: -0.214 | inactive: -0.023 | inactive: -0.022 | inactive: -0.045
15 | BPTF (UniProt Q12830) | inactive: 0.054 | inactive: -0.011 | inactive: -0.039 | inactive: -0.02 | inactive: -0.041 | inactive: -0.025 | inactive: -0.012 | inactive: 0.01 | inactive: 0.032 | inactive: 0 | inactive: -0.022 | inactive: -0.08 | inactive: 0.049 | inactive: 0.018 | inactive: 0.004 | inactive: 0.039 | inactive: 0.091 | inactive: 0.033 | inactive: 0.022 | inactive: 0.05
16 | BTD isoform 3 (UniProt P43251) | inactive: 0.021 | inactive: -0.054 | inactive: -0.189 | inactive: 0.039 | inactive: 0.007 | inactive: -0.022 | inactive: -0.026 | inactive: 0.112 | inactive: -0.112 | inactive: -0.047 | inactive: -0.079 | inactive: -0.004 | inactive: 0 | inactive: 0.092 | inactive: 0.061 | inactive: -0.08 | inactive: 0.019 | – | inactive: 0.007 | –

In a second layout: entries from further up.
Row	Target	log2 fold change [1]	log2 fold change [2]	log2 fold change [3]	log2 fold change [4]	log2 fold change [5]	log2 fold change [6]	log2 fold change [7]	log2 fold change [8]	log2 fold change [9]	log2 fold change [10]	log2 fold change [11]	log2 fold change [12]	log2 fold change [13]	log2 fold change [14]	log2 fold change [15]	log2 fold change [16]	log2 fold change [17]	log2 fold change [18]	log2 fold change [19]	log2 fold change [20]
3	BCL10 (UniProt O95999)	inactive: -0.009	inactive: -0.007	inactive: 0.015	inactive: 0.031	inactive: 0.029	inactive: 0.026	inactive: 0.035	inactive: 0.02	inactive: 0.03	inactive: 0.013	inactive: -0.061	inactive: 0.036	inactive: 0.024	inactive: -0.041	inactive: -0.009	inactive: 0.037	inactive: -0.057	inactive: 0.002	inactive: -0.049	inactive: -0.011
4	BRD3 (UniProt Q15059)	inactive: -0.046	inactive: 0.038	inactive: -0.087	active: 0.451	inactive: 0.263	–	inactive: -0.143	inactive: 0.188	inactive: 0.008	inactive: -0.082	inactive: -0.059	–	inactive: 0.105	inactive: 0.017	inactive: 0.09	inactive: -0.016	inactive: 0.018	inactive: -0.003	inactive: -0.015	inactive: -0.15
5	BRI3BP (UniProt Q8WY22)	inactive: 0.057	inactive: -0.068	inactive: -0.025	inactive: -0.223	inactive: -0.025	inactive: 0.069	inactive: 0.114	inactive: 0.096	inactive: 0.136	–	inactive: -0.128	inactive: 0.091	inactive: -0.253	inactive: -0.069	inactive: -0.002	inactive: 0.09	inactive: 0.09	inactive: -0.179	inactive: -0.066	inactive: -0.055
